Measured values reported in patent US20120128626A1 (ALDERBIO, published 2012).
Results are given in words; binding and its absence hold for the method and conditions named.

Biological target: T1, Dog IL-6 (dog) (UniProt P41323)
T1 sequence (looked up): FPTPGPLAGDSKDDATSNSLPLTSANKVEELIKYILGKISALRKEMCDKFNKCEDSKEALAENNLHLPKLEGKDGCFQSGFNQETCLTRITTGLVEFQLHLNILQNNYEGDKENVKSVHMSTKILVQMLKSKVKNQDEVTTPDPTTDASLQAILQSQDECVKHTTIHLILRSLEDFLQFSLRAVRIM
Experiment: condition: Below Limit of Quantitation (value not given); surface plasmon resonance, 25 C

binding: no binding
B1: Ab1 (antibody, human IgG1, kappa, N297A, V domains shown)
VH: EVQLVESGGGLVQPGGSLRLSCAASGFSLSNYYVTWVRQAPGKGLEWVGIIYGSDETAYATSAIGRFTISRDNSKNTLYLQMNSLRAEDTAVYYCARDDSSDWDAKFNLWGQGTLVTVSS
VL: AIQMTQSPSSLSASVGDRVTITCQASQSINNELSWYQQKPGKAPKLLIYRASTLASGVPSRFSGSGSGTDFTLTISSLQPDDFATYYCQQGYSLRNIDNAFGGGTKVEIKR
